PMC4414483

Biological target: T1, core-SRF (serum response factor core domain) (UniProt P11831)
T1 sequence (looked up): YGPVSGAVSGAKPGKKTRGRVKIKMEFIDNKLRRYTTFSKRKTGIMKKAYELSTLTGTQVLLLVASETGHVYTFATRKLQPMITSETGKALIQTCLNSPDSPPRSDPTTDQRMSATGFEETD
Assay: Raman spectroscopy
Conditions: 2:1 core-SRF:SRE, about 1e-4 M complex, 5 and 15 C, Kd only cited from ref 12; 10 mM Tris-HCl pH 8.5, 0.1 M NaCl, 1 mM DTT, 1 mM EDTA (mixing buffer before concentration); Raman difference spectra 15 C minus 5 C; recombinant protein; residues 124-245

Sequence: GGATGTCCATATTAGGACAT (double strand) [SREfos]
- binding result: binds

Construct, isoform or probe ends are uncertain for at least one entry. At least one verdict rests on a figure or table, not on a statement of the authors. Protein sequences can lack the tags named with them.
